For 1 molecule, binding results are on record in patent US20170088616A1.

The chains behind the UniProt entries cited, without tags or fusion partners. Where a name states a change or a piece, a line headed by the entry shows the natural chain unless it says otherwise.
UniProt Q8TDQ0: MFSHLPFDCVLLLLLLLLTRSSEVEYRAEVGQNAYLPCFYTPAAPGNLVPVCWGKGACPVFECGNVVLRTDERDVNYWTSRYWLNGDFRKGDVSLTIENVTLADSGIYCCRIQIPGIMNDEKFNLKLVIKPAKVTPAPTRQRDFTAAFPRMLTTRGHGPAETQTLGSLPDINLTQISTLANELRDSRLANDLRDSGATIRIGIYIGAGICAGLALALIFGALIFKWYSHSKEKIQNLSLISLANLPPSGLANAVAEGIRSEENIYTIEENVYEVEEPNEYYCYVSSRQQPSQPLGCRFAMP

One experiment deals with human TIM-3 (human) (UniProt Q8TDQ0). Description: flow cytometry, transfected HEK293F cells. A general note: Flow cytometry measures light scatter and fluorescence of single cells or particles in a stream.
Experiment [1] addresses Mucin chimeraTIM-3 (human TIM-3 with the mucin domain substituted for mouse TIM-3) (human/mouse chimera). The experiment is described as follows: flow cytometry, transfected HEK293F cells.

No constants are given. Whether binding was seen depends on the method and setting. Some entries that bind do so weakly or less than the wild type.

B1: antibody 4177 (antibody, human IgG1, V domains shown)
VH: QVQLQESGPGLVKPSETLSLTCTVSGGSISSYYWSWIRQPPGKGLEWIGYIFHSGSTNYNPSLKSRVTISVDTSKNQFSLKLSSVTAADTAVYYCARDGEYFDMLTGFDYWGQGTLVTVSS
VL: DIQMTQSPSSLSASVGDRVTITCRASQGISSWLAWYQQKPEKAPKSLIYAASSLQSGVPSRFSGSGSGTDFTLTISSLQPEDFATYYCQQYNSYPRTFGQGTKVEIK
On to B1, for which the binding entry (with human TIM-3 (human); in experiment [1]) was “binds” throughout.
